Laboratory results from PMC4742714.
Results are given in words; binding and its absence hold for the method and conditions named. Binding seen in cells or lysates may run through a third protein. Some results given as binding are weak or reduced against the parent protein; the word gives no strength.

Amino acid sequences for entries named in this document (tags omitted).
UniProt P78347: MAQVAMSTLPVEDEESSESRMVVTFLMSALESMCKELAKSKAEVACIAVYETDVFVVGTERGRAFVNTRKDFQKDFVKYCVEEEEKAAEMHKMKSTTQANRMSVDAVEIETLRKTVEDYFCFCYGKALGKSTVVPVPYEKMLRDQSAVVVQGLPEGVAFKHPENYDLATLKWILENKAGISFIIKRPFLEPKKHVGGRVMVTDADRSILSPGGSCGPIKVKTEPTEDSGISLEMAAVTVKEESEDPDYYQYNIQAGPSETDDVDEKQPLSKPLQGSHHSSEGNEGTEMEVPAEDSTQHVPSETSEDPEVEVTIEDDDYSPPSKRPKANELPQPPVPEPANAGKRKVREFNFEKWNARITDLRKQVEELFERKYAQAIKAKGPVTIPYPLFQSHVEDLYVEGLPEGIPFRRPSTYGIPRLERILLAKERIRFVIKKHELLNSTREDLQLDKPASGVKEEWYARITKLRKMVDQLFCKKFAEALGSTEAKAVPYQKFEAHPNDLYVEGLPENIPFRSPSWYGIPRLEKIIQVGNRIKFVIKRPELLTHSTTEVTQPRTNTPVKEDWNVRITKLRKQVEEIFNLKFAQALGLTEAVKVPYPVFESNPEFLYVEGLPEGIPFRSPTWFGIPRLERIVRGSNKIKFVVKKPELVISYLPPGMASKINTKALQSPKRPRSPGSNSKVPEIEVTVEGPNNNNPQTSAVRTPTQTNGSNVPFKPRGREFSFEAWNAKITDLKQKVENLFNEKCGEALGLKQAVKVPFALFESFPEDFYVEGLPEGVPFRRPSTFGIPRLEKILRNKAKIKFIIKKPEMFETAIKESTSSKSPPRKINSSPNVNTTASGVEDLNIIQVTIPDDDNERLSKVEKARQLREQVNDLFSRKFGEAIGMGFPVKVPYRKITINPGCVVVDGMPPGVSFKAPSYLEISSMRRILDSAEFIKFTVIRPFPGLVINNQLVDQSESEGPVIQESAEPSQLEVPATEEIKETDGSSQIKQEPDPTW
UniProt P04489: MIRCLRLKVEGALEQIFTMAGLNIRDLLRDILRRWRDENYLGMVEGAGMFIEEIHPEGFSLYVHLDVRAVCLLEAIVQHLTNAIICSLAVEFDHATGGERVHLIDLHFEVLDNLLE

Biological target: General transcription factor II-I (TFII-I), FLAG-tagged (UniProt P78347)
Experiment: co-IP; HeLa cells transfected with pCMV-3Tag-TFII-I, infected the next day with Ad-CMV expressing HA-E4-ORF3; extracts at 12 h postinfection; TFII-I immunoprecipitated with anti-FLAG antibody (isotype-matched IgG as control); E4-ORF3 detected by anti-HA Western blot

“Adenovirus type 5 early region 4 open reading frame 3 (E4-ORF3) protein, HA-tagged, wild type (from UniProt P04489 1-116)” was tested, and the binding was “binds”.
